Laboratory results taken from publication PMC3103587.
Substitutions are numbered along the chain they refer to. Numbers in names are those of the source. These are yes or no findings as the source states them, for the method shown. A result given as binding can be weak or reduced; the word gives no strength. One block for each binder: values may come before it.

What was measured:
[1] = target: Mfn2-HR2 (HR2-containing C-terminal cytosolic domain); experiment: two-hybrid; semi-quantitative: Matchmaker Two-Hybrid System 3, yeast AH109; ratio of colony numbers on SD/-Leu/-Trp/-His and SD/-Leu/-Trp plates (HIS3 activity)
[2] = target: Mfn2-HR2 (HR2-containing C-terminal cytosolic domain); experiment: two-hybrid; Matchmaker Two-Hybrid System 3, yeast AH109, growth in SD/-Leu/-Trp/-His; the legend does not tell whether semi-quantitative or dilution series (Fig. 2B, 3B, 8A, 8B, 8E)
[3] = target: C-terminal coiled coil domain of DLP1 (DLP1-CC); experiment: as above
[4] = target: Mfn2-HR2 (HR2-containing C-terminal cytosolic domain); experiment: two-hybrid; dilution series: Matchmaker Two-Hybrid System 3, yeast AH109; 1:5 serial dilutions spotted onto SD/-Leu/-Trp/-His, grown for four days
[5] = target: C-terminal coiled coil domain of DLP1 (DLP1-CC); experiment: as above

binding [1]: binds
binding [2]: binds
binding [3]: binds
binding [4]: binds
binding [5]: binds
B1: Mfn2[360–448] (domain or fragment, UniProt O95140 360-448)
chain: QHTVRAKQIAEAVRLIMDSLHMAAREQQVYCEEMREERQDRLKFIDKQLELLAQDYKLRIKQITEEVERQVSTAMAEEIRRLSVLVDDY

binding [2]: no binding
binding [3]: binds
B2: Mfn2[360–448]-L408P (domain or fragment, UniProt O95140 360-448)
chain: B1 chain with L49P

binding [2]: binds
binding [3]: no binding
B3: Mfn2[360–448]-L441P (domain or fragment, UniProt O95140 360-448)
chain: B1 chain with L82P

binding [2]: no binding
binding [3]: no binding
B4: Mfn2[360–448]-L374P (domain or fragment, UniProt O95140 360-448)
chain: B1 chain with L15P
